The list shows only some results of the screen, not a fair sample: it gathers tests that were run many times, whatever their T/C, doses with no T/C, and many T/C values between a quarter and a half above the control. Other doses and runs of a compound stand elsewhere. T/C gives the treated animals as a percentage of the vehicle group. Some entries give survivors of the animals treated and no T/C: the source files T/C as zero there, which appears to mark a toxic dose or a test without result, not a measured value. Some doses without a T/C left all or most animals alive at the check, yet need not have been tolerated: survival well below the control is almost never listed, so the zero probably covers shortened survival too. Survivors were counted at the toxicity check, usually on the fifth day, unless a day is given; later deaths do not show. Schedule codes are those of the source, read here as Q, the interval in days (D) or hours (H), X, the number of doses. Some schedules carry Z or #; the key to these is not given. For survival time, the PubChem record calls one and a half times the control and up active, and a quarter to a half above the control has no call in these data; cut-offs in other NCI protocols can differ. Some entries hold several experiments; the values are given in rising order.
System: L1210 leukemia ip in BDF1 mice, survival T/C
Experiment: NCI In Vivo Anticancer Drug Screen. Data for tumor model L1210 Leukemia (intraperitoneal) in B6D2F1 (BDF1) mice
Conditions: T/C endpoint: mean survival time, higher T/C = longer survival
[1] = dose: 400.0 mg/kg/injection, schedule: Q04DX003 (ip), vehicle: saline
[2] = dose: 200.0 mg/kg/injection, schedule: Q01DX001 (ip), vehicle: saline
[3] = dose: 400.0 mg/kg/injection, schedule: Q01DX001 (ip), vehicle: saline
[4] = dose: 400.0 mg/kg/injection, schedule: Q01DX001 (ip), vehicle: Klucel (hydroxypropylcellulose) (HPC)
[5] = dose: 100.0 mg/kg/injection, schedule: Q04DX002 (ip), vehicle: saline with Tween-80
[6] = dose: 200.0 mg/kg/injection, schedule: Q04DX002 (ip), vehicle: saline with Tween-80
[7] = dose: 400.0 mg/kg/injection, schedule: Q04DX002 (ip), vehicle: saline with Tween-80
[8] = dose: 200.0 mg/kg/injection, schedule: Q04DX003 (ip), vehicle: Klucel (hydroxypropylcellulose) (HPC)

## CC(C)(C)NC(=O)CCC(CC(=O)NC(C)(C)C)S(=O)(=O)O (stereo unspecified)
[1]
  survivor count: 0 of 6

## CC(=[N-])CC(C)=O.CC(=[N-])CC(C)=O.[Cu+2]
dose: 25.0 mg/kg/injection, schedule: Q04DX003 (ip), vehicle: saline with Tween-80
  survivor count: 6 of 6
dose: 100.0 mg/kg/injection, schedule: Q04DX003 (ip), vehicle: saline with Tween-80
  survivor count: 1 of 6
dose: 200.0 mg/kg/injection, schedule: Q04DX003 (ip), vehicle: saline with Tween-80
  survivor count: 0 of 6
dose: 400.0 mg/kg/injection, schedule: Q04DX003 (ip), vehicle: saline with Tween-80
  survivor count: 0 of 6

## CCC1([N+](=O)[O-])COP(N)(=O)OC1 (stereo unspecified)
dose: 100.0 mg/kg/injection, schedule: Q01DX001 (ip), vehicle: saline
  survivor count: 3 of 6
[2]
  survivor count: 3 of 6
[3]
  survivor count: 1 of 6

## Nc1nc(F)nc2c1ncn2C1OC(CO)C(O)C1O (stereo unspecified)
dose: 0.5 mg/kg/injection, schedule: Q01DX009 (ip), vehicle: saline
  T/C: 98, 101, 103, 104 % of control
dose: 1.0 mg/kg/injection, schedule: Q01DX009 (ip), vehicle: saline
  T/C: 101, 109, 110, 111 % of control
dose: 2.0 mg/kg/injection, schedule: Q01DX009 (ip), vehicle: saline
  T/C: 98, 106, 109, 127 % of control
dose: 4.0 mg/kg/injection, schedule: Q01DX009 (ip), vehicle: saline
  T/C: 101, 103, 104, 108 % of control
dose: 100.0 mg/kg/injection, schedule: Q06HX012 (ip), vehicle: saline with Tween-80, evaluated on day 5
  T/C: 180 % of control
dose: 100.0 mg/kg/injection, schedule: Q06HX012 (ip), vehicle: saline with Tween-80, evaluated on day 60
  T/C: 154, 179, 180 % of control
dose: 150.0 mg/kg/injection, schedule: Q03HX024 (ip), vehicle: saline with Tween-80
  survivor count: 4 of 6
dose: 200.0 mg/kg/injection, schedule: Q01DX009 (ip), vehicle: saline with Tween-80
  T/C: 138 % of control
dose: 400.0 mg/kg/injection, schedule: Q01DX009 (ip), vehicle: saline with Tween-80
  survivor count: 7 of 10
dose: 500.0 mg/kg/injection, schedule: Q01DX009 (ip), vehicle: saline with Tween-80
  survivor count: 8 of 10
dose: 500.0 mg/kg/injection, schedule: Q12HX006 (ip), vehicle: saline with Tween-80
  T/C: 141 % of control

## COc1ccc2[nH]c(=O)ccc2c1
[4]
  survivor count: 2 of 6

## CN1CC2C3C=CC(C3)C2C1 (stereo unspecified)
dose: 300.0 mg/kg/injection, schedule: Q01DX001 (ip), vehicle: other
  survivor count: 0 of 6

## c1ccc2cc(B(c3cccc4ccccc34)c3cccc4ccccc34)ccc2c1
[5]
  survivor count: 1 of 3
[6]
  survivor count: 1 of 3
[7]
  survivor count: 0 of 3

## Nc1c(Br)cc(Br)cc1C(=O)O
dose: 400.0 mg/kg/injection, schedule: Q01DX001 (ip), vehicle: other
  survivor count: 4 of 4

## CC(C)Cc1ccc(C(C)C(=O)O)cc1 (stereo unspecified)
[3]
  survivor count: 3 of 3

## ClCC1=NCCCN1
dose: 200.0 mg/kg/injection, schedule: Q04DX002 (ip), vehicle: Klucel (hydroxypropylcellulose) (HPC)
  survivor count: 2 of 3
dose: 400.0 mg/kg/injection, schedule: Q04DX002 (ip), vehicle: Klucel (hydroxypropylcellulose) (HPC)
  survivor count: 0 of 3

## CCCCCCCCCCCCC/C=C\C(=O)N(CCCCN(C)C)CCCCN(C)C
dose: 12.0 mg/kg/injection, schedule: Q01DX009 (ip), vehicle: carboxymethylcellulose (CMC)
  survivor count: 1 of 6

## O=C(c1ccccc1)c1cc(-c2ccccc2)n(C2CCCCC2)c1
dose: 100.0 mg/kg/injection, schedule: Q01DX009 (ip), vehicle: saline with Tween-80
  survivor count: 3 of 3

## CN(C)C(=O)c1ccc[n+](Cc2ccc(Cl)c(Cl)c2)c1
dose: 200.0 mg/kg/injection, schedule: Q04DX003 (ip), vehicle: saline
  survivor count: 4 of 6
[1]
  survivor count: 0 of 6

## CCc1cnccc1C
[8]
  survivor count: 2 of 6
dose: 400.0 mg/kg/injection, schedule: Q04DX003 (ip), vehicle: Klucel (hydroxypropylcellulose) (HPC)
  survivor count: 0 of 6

## CC[CH2][Pb]([CH2]CC)([CH2]CC)[O]C(C)=O
dose: 25.0 mg/kg/injection, schedule: Q04DX003 (ip), vehicle: Klucel (hydroxypropylcellulose) (HPC)
  survivor count: 3 of 6
dose: 50.0 mg/kg/injection, schedule: Q04DX003 (ip), vehicle: Klucel (hydroxypropylcellulose) (HPC)
  survivor count: 0 of 6
dose: 100.0 mg/kg/injection, schedule: Q04DX003 (ip), vehicle: Klucel (hydroxypropylcellulose) (HPC)
  survivor count: 0 of 6
[2]
  survivor count: 2 of 4
[8]
  survivor count: 0 of 6
[3]
  survivor count: 0 of 4

## CC1(C)N=C(N)N=C(N)N1NC(=O)c1ccc(F)cc1
dose: 400.0 mg/kg/injection, schedule: Q01DX009 (ip), vehicle: saline
  survivor count: 3 of 6

## c1ccc2nc(CCC3CCCCN3)ccc2c1 (stereo unspecified)
dose: 500.0 mg/kg/injection, schedule: Q01DX Z (ip), vehicle: methylcellulose (MC)
  survivor count: 3 of 6
dose: 750.0 mg/kg/injection, schedule: Q01DX Z (ip), vehicle: methylcellulose (MC)
  survivor count: 0 of 6
dose: 1000.0 mg/kg/injection, schedule: Q01DX Z (ip), vehicle: methylcellulose (MC)
  survivor count: 0 of 6

## O=C1C(Cl)CCCCC1Cl (stereo unspecified)
dose: 400.0 mg/kg/injection, schedule: Q01DX009 (ip), vehicle: acetone
  survivor count: 1 of 6

## CCC(=O)OCC1OC(n2cc(F)c(=O)[nH]c2=O)CC1OC(=O)CC (stereo unspecified)
dose: 133.0 mg/kg/injection, schedule: Q01DX015 (ip), vehicle: saline
  T/C: 129 % of control
dose: 200.0 mg/kg/injection, schedule: Q01DX015 (ip), vehicle: saline
  T/C: 142 % of control
[1]
  T/C: 127 and 138 % of control

## Oc1ccc2ccccc2c1/C=C/c1ccncc1
dose: 100.0 mg/kg/injection, schedule: Q01DX009 (ip), vehicle: Klucel (hydroxypropylcellulose) (HPC)
  survivor count: 4 of 6
dose: 200.0 mg/kg/injection, schedule: Q01DX001 (ip), vehicle: Klucel (hydroxypropylcellulose) (HPC)
  survivor count: 4 of 6
dose: 200.0 mg/kg/injection, schedule: Q01DX009 (ip), vehicle: Klucel (hydroxypropylcellulose) (HPC)
  survivor count: 0 of 6
[4]
  survivor count: 0 of 6

## C1=C(c2ccccc2)N2CCN=C2S1
dose: 100.0 mg/kg/injection, schedule: Q01DX001 (ip), vehicle: carboxymethylcellulose (CMC)
  survivor count: 2 of 4
dose: 200.0 mg/kg/injection, schedule: Q01DX001 (ip), vehicle: carboxymethylcellulose (CMC)
  survivor count: 0 of 4
dose: 400.0 mg/kg/injection, schedule: Q01DX001 (ip), vehicle: carboxymethylcellulose (CMC)
  survivor count: 0 of 4

## O=C(/C=C/c1cccc2ccccc12)c1ccccc1[N+](=O)[O-]
[5]
  survivor count: 3 of 3
[6]
  survivor count: 3 of 3

## CC1=C(O)C(=O)C(c2c(C)cc(C)c(Br)c2C)=C(O)C1=O
dose: 150.0 mg/kg/injection, schedule: Q01DX009 (ip), vehicle: Klucel (hydroxypropylcellulose) (HPC)
  survivor count: 3 of 6
dose: 300.0 mg/kg/injection, schedule: Q01DX009 (ip), vehicle: Klucel (hydroxypropylcellulose) (HPC)
  survivor count: 0 of 6

## CC([NH-])C(C)[NH-].CC([NH-])C(C)[NH-].[Cl][Co][Cl] (stereo unspecified)
dose: 400.0 mg/kg/injection, schedule: Q04DX002 (ip), vehicle: saline
  survivor count: 0 of 3

## C/C=C/c1cc(C)cc(C)c1OC(C)CC (stereo unspecified)
[7]
  T/C: 125 % of control

## CCc1cc2c(cc1C(=O)/C=C\C(=O)O)C(C)(C)CCC2(C)C
dose: 15.0 mg/kg/injection, schedule: Q01DX009 (ip), vehicle: saline with Tween-80
  survivor count: 0 of 6
dose: 22.0 mg/kg/injection, schedule: Q01DX001 (ip), vehicle: saline
  survivor count: 0 of 6
dose: 23.0 mg/kg/injection, schedule: Q04DX003 (ip), vehicle: acetone
  survivor count: 1 of 6
dose: 35.0 mg/kg/injection, schedule: Q04DX003 (ip), vehicle: acetone
  survivor count: 0 of 6
dose: 50.0 mg/kg/injection, schedule: Q04DX003 (ip), vehicle: acetone
  survivor count: 0 of 6

— PubChem BioAssay AID248 (DTP/NCI, 2004)
